Like-named read-outs stand apart in the source and are kept apart here.

Experiment [1] addresses T1, IDE (Homo sapiens, UniProt P14735).
T1 sequence (P14735 1-1019): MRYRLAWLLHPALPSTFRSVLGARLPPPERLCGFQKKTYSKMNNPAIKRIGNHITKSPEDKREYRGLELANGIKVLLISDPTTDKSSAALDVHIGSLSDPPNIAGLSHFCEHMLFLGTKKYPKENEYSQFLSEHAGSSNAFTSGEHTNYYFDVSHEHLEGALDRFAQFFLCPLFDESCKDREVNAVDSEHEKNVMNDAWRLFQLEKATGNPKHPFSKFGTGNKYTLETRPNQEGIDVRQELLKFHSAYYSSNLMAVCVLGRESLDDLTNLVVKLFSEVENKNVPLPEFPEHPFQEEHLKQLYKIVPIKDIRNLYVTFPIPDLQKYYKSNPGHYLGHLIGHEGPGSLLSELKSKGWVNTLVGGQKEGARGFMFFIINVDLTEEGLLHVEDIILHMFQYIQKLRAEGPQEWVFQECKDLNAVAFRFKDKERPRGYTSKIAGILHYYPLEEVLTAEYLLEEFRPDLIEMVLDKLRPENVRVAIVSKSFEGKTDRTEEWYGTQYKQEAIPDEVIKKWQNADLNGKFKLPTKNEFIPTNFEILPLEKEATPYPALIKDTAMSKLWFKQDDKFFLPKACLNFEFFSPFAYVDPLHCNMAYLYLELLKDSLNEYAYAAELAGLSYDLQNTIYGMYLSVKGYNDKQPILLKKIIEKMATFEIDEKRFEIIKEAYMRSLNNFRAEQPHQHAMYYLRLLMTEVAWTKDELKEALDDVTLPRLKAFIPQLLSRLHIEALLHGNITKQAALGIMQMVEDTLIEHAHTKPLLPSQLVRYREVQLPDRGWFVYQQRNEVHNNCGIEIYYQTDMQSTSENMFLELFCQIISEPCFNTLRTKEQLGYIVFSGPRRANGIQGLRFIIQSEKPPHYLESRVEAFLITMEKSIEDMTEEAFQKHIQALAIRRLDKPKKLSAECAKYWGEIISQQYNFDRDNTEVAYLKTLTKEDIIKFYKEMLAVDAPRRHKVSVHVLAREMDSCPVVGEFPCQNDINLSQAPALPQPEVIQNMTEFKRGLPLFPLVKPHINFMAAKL
Briefly: Wet-lab test of inhibition of IDE. The class given is biochemical.

Experiment [2] concerns the target T1, IDE. The settings on record: read-out: IC50 Reported value, binding to IDE, ref not given; cited from earlier work.

As to `CC[C@H](C)[C@H](N)C1=N[C@H](C(=O)N[C@@H](CC(C)C)C(=O)N[C@H](CCC(=O)O)C(=O)N[C@H](C(=O)N[C@H]2CCCCNC(=O)[C@H](CC(N)=O)NC(=O)[C@@H](CC(=O)O)NC(=O)[C@H](Cc3cnc[nH]3)NC(=O)[C@@H](Cc3ccccc3)NC(=O)[C@H]([C@@H](C)CC)NC(=O)[C@@H](CCCN)NC2=O)[C@@H](C)CC)CS1` [Bacitracin A], the results for the 50% inhibitory concentration (IC50) against IDE [1] and at IDE [2] were 79.2 µM and 100 µM, respectively. Further, the inhibition rate on IDE [1] (binding to IDE) came out at 77.08%.
